Values from PubChem BioAssay AID652259 (Drosophila RNAi Screening Center, 2013)
Screen: 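Identify new Wingless signalling regulators in fly cells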 (primary screen). Cell system: Drosophila clone 8 imaginal disc epithelial cells. Knock-down reagent: long dsRNA against Drosophila genes. Conditions: pathway stimulated by co-transfected Wingless expression plasmid. Read-out: 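Dual luciferase reads per well after Wingless plasmid stimulation: reporter firefly light and Renilla control light; activity is firefly divided by Renilla, a ratio not deposited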. Scale: firefly reporter light: higher = more Wg reporter light, before normalisation; Renilla control light: higher = more transfected or surviving cells. Rule for the call: 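a knock-down is a candidate when at least two out of four statistical tests show it departing from its plate mean; one test alone signals a weak candidate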. Calls: active = candidate regulator (raises or lowers reporter); inactive = not a candidate.
The screen tested about 22,000 reagents; below is a random part of those that have a named target and a result. Over the whole deposit, 233 (1.1%) got an active call. 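Light values are raw, unnormalised plate reads; the ratio scores behind the reporter calls were not deposited.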 A number with no mark means an inactive call. Not given: the amount of reagent, the time to read-out, the dose of the treatment.

The first 2 records, to show the layout:
target gene | DRSC id | firefly reporter light, replicate 1 | firefly reporter light, replicate 2 | Renilla control light, replicate 1 | Renilla control light, replicate 2
CG10814 | DRSC06004 | 9360 | – | 4037 | –
spirit | DRSC18202 | 3467 | 4178 | 1192 | 1609

The list itself, from the start:
target gene | DRSC id | firefly reporter light, replicate 1 | firefly reporter light, replicate 2 | Renilla control light, replicate 1 | Renilla control light, replicate 2
CG10814 | DRSC06004 | 9360 | – | 4037 | –
spirit | DRSC18202 | 3467 | 4178 | 1192 | 1609
CG31875 | DRSC21975 | 5.64e5 | 5.37e5 | 1.81e5 | 1.82e5
Su(P) | DRSC11291 | 7861 | – | 3133 | –
alpha-Est3 | DRSC12615 | 4953 | – | 1398 | –
Dhps | DRSC10948 | 3047 | 8139 | 1305 | 3264
Obp83a | DRSC12362 | 17185 | – | 4232 | –
AOX2 | DRSC15338 | 11587 | – | 3002 | –
Myd88 | DRSC06815 | 13516 | – | 2405 | –
CG34353 | DRSC14493 | 9446 | – | 4436 | –
CG34353 | DRSC14517 | 11366 | – | 3666 | –
CG34353 | DRSC14563 | 10547 | – | 3619 | –
CG34353 | DRSC15837 | 8752 | – | 3234 | –
CG34353 | DRSC22429 | 4.86e5 | 5.65e5 | 2.35e5 | 88725
fid | DRSC14885 | 20450 | – | 11408 | –
fid | DRSC16464 | 29905 | – | 12208 | –
CG15894 | DRSC18098 | 23792 | – | 10086 | –
CG15894 | DRSC18099 | 32514 | – | 6778 | –
Opa1 | DRSC07191 | 13616 | – | 2289 | –
Tsp39D | DRSC03099 | 3447 | 7968 | 1037 | 3116
CG3817 | DRSC15515 | 6640 | – | 2087 | –
Imp | DRSC18857 | 3948 | – | 1334 | –
Imp | DRSC18861 | 5970 | – | 1988 | –
Imp | DRSC20255 | 3060 | 5045 | 1149 | 2260
Imp | DRSC21907 | 5.31e5 | 5.02e5 | 1.11e5 | 1.14e5
CG30087 | DRSC21677 | 7.81e5 | 7.79e5 | 4.09e5 | 3.73e5
CG43260 (retired record) | DRSC19313 | 4240 | – | 1572 | –
CG30105 | DRSC05668 | 20225 | – | 13602 | –
CG17486 | DRSC07752 | 10992 | – | 4052 | –
ics | DRSC01878 | 18977 | – | 4176 | –
kkv | DRSC12315 | 6597 | – | 2472 | –
CG14259 | DRSC14754 | 5325 | – | 2332 | –
lawc | DRSC22531 | 1.05e6 | 1.16e6 | 97320 | 53056
beat-VII | DRSC13780 | 5788 | – | 2491 | –
beat-VII | DRSC14743 | 6948 | – | 3106 | –
beat-VII | DRSC14744 | 8221 | – | 2645 | –
beat-VII | DRSC22825 | 4.88e5 | 5.21e5 | 2.14e5 | 2.91e5
ITP | DRSC04222 | 2525 | 6920 | 761 | 2176
srl | DRSC12340 | 23480 | – | 4841 | –
cv-c | DRSC14969 | 10480 | – | 3232 | –
cv-c | DRSC14970 | 19877 | – | 6464 | –
cv-c | DRSC14971 | 13041 | – | 2715 | –
cv-c | DRSC14972 | 12912 | – | 2256 | –
cv-c | DRSC14973 | 19754 | – | 2962 | –
cv-c | DRSC16428 | 9864 | – | 3462 | –
Pgant1 | DRSC07095 | 6577 | – | 2326 | –
orb | DRSC17021 | 1760 | 4180 | 243 | 449
Vti1a | DRSC08563 | 13688 | – | 4133 | –
bc10 | DRSC11326 | 2326 | 7208 | 1330 | 3828
ko | DRSC11893 | 13049 | – | 3610 | –
PDCD-5 | DRSC09955 | 5892 | – | 3162 | –
nbs | DRSC11373 | 5029 | – | 2260 | –
CG10801 | DRSC17761 | 12090 | – | 8598 | –
Fad2 | DRSC11165 | 4828 | – | 1317 | –
Cul5 | DRSC14723 | 8733 | – | 3296 | –
Fign | DRSC00592 | 13161 | – | 5223 | –
CG11658 | DRSC09852 | 7892 | – | 2869 | –
CG12420 | DRSC14514 | 20445 | – | 5992 | –
tex | DRSC16517 | 13510 | – | 3884 | –
lncRNA:CR30121 | DRSC21481 | 3.38e5 | 3.31e5 | 1.67e5 | 1.20e5
mal | DRSC20581 | 2916 | 5826 | 1073 | 2459
CR18217 | DRSC21506 | 9.18e5 | 8.46e5 | 3.79e5 | 3.59e5
CG13989 | DRSC02321 | 2504 | 5627 | 692 | 2384
CG5509 | DRSC15822 | 16560 | – | 4246 | –
DIP-zeta | DRSC02203 | 3216 | 8194 | 955 | 4004
DIP-zeta | DRSC02204 | 4449 | 10945 | 976 | 4773
DIP-zeta | DRSC02205 | 2048 | 7088 | 682 | 2753
CG15199 | DRSC19646 | 16545 | – | 7033 | –
TwdlH | DRSC14735 | 9283 | – | 4800 | –
betaTub65B | DRSC11393 | 1561 | 7840 | 1277 | 3665
Bet3 | DRSC10388 | 5915 | – | 2492 | –
CG6013 | DRSC15947 | 4099 | 5189 | 1024 | 2492
Wdfy2 | DRSC02822 | 12134 | – | 2128 | –
